In publication doi:10.1101/2022.12.08.519630:
No constants are given. Whether binding was seen depends on the method and setting. Binding seen in cells or lysates may run through a third protein. These calls come from enrichment with a bait or labelling near it, and not all partners need be listed.

B1: ACO3 (protein, UniProt Q9SIB9 79-990)
chain: VSPVLDRLQRTFSSMASEHPFKGIFTTLPKPGGGEFGKFYSLPALNDPRVDKLPYSIRILLESAIRNCDNFQVTKEDVEKIIDWEKTSPKQVEIPFKPARVLLQDFTGVPAVVDLACMRDAMNKLGSDSNKINPLVPVDLVIDHSVQVDVARSENAVQANMELEFQRNKERFAFLKWGSTAFQNMLVVPPGSGIVHQVNLEYLGRVVFNTKGLLYPDSVVGTDSHTTMIDGLGVAGWGVGGIEAEATMLGQPMSMVLPGVVGFKLAGKMRNGVTATDLVLTVTQMLRKHGVVGKFVEFYGNGMSGLSLADRATIANMSPEYGATMGFFPVDHVTLQYLKLTGRSDETVAMIEAYLRANNMFVDYNEPQQDRVYSSYLELNLDDVEPCISGPKRPHDRVTLKEMKADWHSCLDSKVGFKGFAIPKEAQEKVVNFSFDGQPAELKHGSVVIAAITSCTNTSNPSVMLGAGLVAKKACDLGLQVKPWIKTSLAPGSGVVTKYLLKSGLQEYLNEQGFNIVGYGCTTCIGNSGEINESVGAAITENDIVAAAVLSGNRNFEGRVHPLTRANYLASPPLVVAYALAGTVNIDFETEPIGKGKNGKDVFLRDIWPTTEEIAEVVQSSVLPDMFRATYESITKGNPMWNKLSVPENTLYSWDPNSTYIHEPPYFKDMTMDPPGPHNVKDAYCLLNFGDSITTDHISPAGNIQKDSPAAKFLMERGVDRKDFNSYGSRRGNDEIMARGTFANIRIVNKLMNGEVGPKTVHIPSGEKLSVFDAAMRYKSSGEDTIILAGAEYGSGSSRDWAAKGPMLQGVKAVIAKSFERIHRSNLVGMGIIPLCFKSGEDADTLGLTGHERYTIHLPTDISEIRPGQDVTVTTDNGKSFTCTVRFDTEVELAYFNHGGILPYVIRNLSKQ
B2: EGY2 (protein, UniProt Q9FFK3 65-556)
chain: VTETQTEPEGNDDEDNKEGKESSADDPPTKIPTELNSQSTVVNEAPGNEEENKAQFSSQDGDKLEVSSGSPLPGVNVSIIIHVIYKDDSIMFSGCLSFIKSCCEQPLQLDDSMRLPKETIDILRGQVFGFDTFFVTSQEPYEGGVLFKGNLRGKPATSYEKIKTRMENNFGDQYKLFLLTNPEDDKPVAVVVPRRSLEPETTAVPEWFAAGSFGLVALFTLFLRNVPALQSDLLSAFDNLELLKDGLPGALVTALVLGVHELGHILVANSLGIKLGVPFFVPSWQIGSFGAITRIKNIVAKREDLLKVAAAGPLAGFSLGLILFLIGLFVPPSDGIGVVVDASVFHESFLAGGIAKLLLGDALKEGTSISLNPLVIWAWAGLLINGINSIPAGELDGGKIAFSIWGRKTATRLTGASIALLGLSALFSDVAFYWVVLIFFLQRGPIAPLAEEITVPDDKYVSLGILVLFLSLLVCLPYPFAFTGNEAMMIGL
B3: AT2G17695, plastid outer envelope protein (protein, UniProt Q8GXB1 1-205)
chain: MVFLSWGRPSSEQQQQVINKTGTFNYDNKYRGVSSRSIAKLKEDSEIDKDGFLINHARVLVGSGRESYEKGKKALQNWKHFGMDWAFVDPATPVETGKKFCICVKEVLPWVMLPLQVVYVDESRKSRKGPAHFGYGSGTLQGHLLAGEEKFSIELDGNGEVWYEITSFSKPAHFLSFLGYPYVKLRQKHFARHSSEAVLKHVNAS
B4: EMB3119 (protein, UniProt Q9S726 40-276)
chain: SVALSQDDLKKLAAEKAVEAIKPGMVLGLGTGSTAAFAVDQIGKLLSSGELYDIVGIPTSKRTEEQARSLGIPLVGLDTHPRIDLAIDGADEVDPNLDLVKGRGGALLREKMVEAVADKFIVVADDTKLVTGLGGSGLAMPVEVVQFCWNFNLIRLQDLFKEFGCESKLRVDGDGKPYVTDNSNYIIDLYFKTPLKDGFAAAKEIGKFQGVVEHGLFLGMATSVIIAGKNGVEVMTK
B5: RUG2 (protein, UniProt Q9ZT96 46-541)
chain: RPGTGIGLTVQCAIANRRFSSRSLDSPRRERSSRSSSSSGRDRDRDKDKGRDSKSLYSRPSLLDMNKEKAANRAKVYEFLRGIGIVPDELDGLELPVTADVMKERVEFLHKLGLTIEDINNYPLVLGCSVKKNMVPVLDYLGKLGVRKSTFTEFLRRYPQVLHSSVVIDLAPVVKYLQGLDIKPSDVPRVLERYPEVLGFKLEGTMSTSVAYLVGIGVARREIGGILTRYPEILGMRVARIIKPLVEYLEVLGIPRLAAARLIEKRPHILGFELDDTVKPNVQILQDFNVRETSLPSIIAQYPEIIGIDLKPKLDTQRKLLCSAIHLNPEDLGSLIERMPQFVSLSESPMLKHIDFLTKCGFSIDQTREMVIGCPQVLALNLGIMKLSFEYFQKEMKRPLQDLVDFPAFFTYGLESTVKPRHKKIIKKGIKCSLAWMLNCSDEKFEQRMSYDTIDIEEVETDPSSFDMNTLMQPEREEESDSEYEEEEDDDDEEFA
B6: CBSX2 (protein, UniProt Q9C5D0 72-238)
chain: AKNGGYTVGDFMTPRQNLHVVKPSTSVDDALELLVEKKVTGLPVIDDNWTLVGVVSDYDLLALDSISGRSQNDTNLFPDVDSTWKTFNELQKLISKTYGKVVGDLMTPSPLVVRDSTNLEDAARLLLETKFRRLPVVDADGKLIGILTRGNVVRAALQIKRETENST
B7: HSP90_6 (protein, UniProt F4JFN3 49-799)
chain: SSLTNGQSKNSGSFAQLNMKTNWFMGYRNESSAAASDSSSQAPPPAEKFEYQAEVSRLMDLIVNSLYSNKEVFLRELISNASDALDKLRYLSVTNPELSKDAPDLDIRIYADKENGIITLTDSGIGMTRQELVDCLGTIAQSGTAKFMKALKDSKDAGGDNNLIGQFGVGFYSAFLVADRVIVSTKSPKSDKQYVWEGEANSSSFTIQEDTDPQSLIPRGTRITLHLKQEAKNFADPERIQKLVKNYSQFVSFPIYTWQEKGYTKEVEVEDDPTETKKDDQDDQTEKKKKTKKVVERYWDWELTNETQPIWLRNPKEVTTAEYNEFYRKAFNEYLDPLASSHFTTEGEVEFRSILYVPPVSPSGKDDIVNQKTKNIRLYVKRVFISDDFDGELFPRYLSFVKGVVDSHDLPLNVSREILQESRIVRIMKKRLVRKAFDMILGISLSENREDYEKFWDNFGKHLKLGCIEDRENHKRIAPLLRFFSSQSENDMISLDEYVENMKPEQKAIYFIASDSITSAKNAPFLEKMLEKGLEVLYLVEPIDEVAVQSLKAYKEKDFVDISKEDLDLGDKNEEKEAAVKKEFGQTCDWIKKRLGDKVASVQISNRLSSSPCVLVSGKFGWSANMERLMKAQSTGDTISLDYMKGRRVFEINPDHSIIKNINAAYNSNPNDEDAMRAIDLMYDAALVSSGFTPDNPAELGGKIYEMMDVALSGKWSSPEVQPQQQQMAHSHDAETFEAEVVEPVEVDGKK
B8: BCCP2 (protein, UniProt Q9LLC1 88-255)
chain: EFMAKVSGLLKLVDSKDIVELELKQLDCEIVIRKKEALQQAVPPAPVYHSMPPVMADFSMPPAQPVALPPSPTPTSTPATAKPTSAPSSSHPPLKSPMAGTFYRSPGPGEPPFVKVGDKVQKGQIVCIIEAMKLMNEIEAEKSGTIMELLAEDGKPVSVDTPLFVIAP
B9: FBA1 (protein, UniProt Q9SJU4 49-399)
chain: ASAYADELVKTAKTIASPGHGIMAMDESNATCGKRLASIGLENTEANRQAYRTLLVSAPGLGQYISGAILFEETLYQSTTDGKKMVDVLVEQNIVPGIKVDKGLVPLVGSYDESWCQGLDGLASRTAAYYQQGARFAKWRTVVSIPNGPSALAVKEAAWGLARYAAISQDSGLVPIVEPEIMLDGEHGIDRTYDVAEKVWAEVFFYLAQNNVMFEGILLKPSMVTPGAEATDRATPEQVASYTLKLLRNRIPPAVPGIMFLSGGQSELEATLNLNAMNQAPNPWHVSFSYARALQNTCLKTWGGKEENVKAAQDILLARAKANSLAQLGKYTGEGESEEAKEGMFVKGYTY
B10: AT2G19940, predicted N-acetyl-gamma-glutamyl-phosphate reductase (protein, UniProt Q93Z70 49-401)
chain: ASSSVKPEKDIRIGLLGASGYTGAEIVRLLANHPHFQVTLMTADRKAGQSMESVFPHLRAQKLPTLVSVKDADFSTVDAVFCCLPHGTTQEIIKELPTALKIVDLSADFRLRNIAEYEEWYGQPHKAVELQKEVVYGLTEILREDIKKARLVANPGCYPTTIQLPLVPLLKANLIKHENIIIDAKSGVSGAGRGAKEANLYSEIAEGISSYGVTRHRHVPEIEQGLSDVAQSKVTVSFTPHLMPMIRGMQSTIYVEMAPGVRTEDLHQQLKTSYEDEEFVKVLDEGVVPRTHNVRGSNYCHMSVFPDRIPGRAIIISVIDNLVKGASGQALQNLNIMLGYPETTGLLHQPLFP
B11: GUN2 (protein, UniProt O48782 55-282)
chain: AATTAAEKQKKRYPGESKGFVEEMRFVAMRLHTKDQAKEGEKETKSIEERPVAKWEPTVEGYLRFLVDSKLVYDTLELIIQDSNFPTYAEFKNTGLERAEKLSTDLEWFKEQGYEIPEPTAPGKTYSQYLKELAEKDPQAFICHFYNIYFAHSAGGRMIGRKVAERILDNKELEFYKWDGELSQLLQNVREKLNKVAEEWTREEKNHCLEETEKSFKYSGEILRLILS

Each binder was assayed against CGL20a-TID-YFP fusion protein (Arabidopsis thaliana) (assay: proximity labelling).

binding, binds:
B1
B2
B3
B4
B5
B6
B7
B8
B9
B10
B11
